From paper PMC3989216 come the findings set out here.

These are yes or no findings as the source states them, for the method shown. Binding can be weak; no strength is given. Tags and fused reporters may be left off the sequences shown. For some assays here: In cells and extracts the contact can be indirect.

Assay [1] addresses T1, His-SGF1, full-length silk gland factor 1 (fork head transcription factor) (Bombyx mori) (UniProt Q17241).
T1 sequence: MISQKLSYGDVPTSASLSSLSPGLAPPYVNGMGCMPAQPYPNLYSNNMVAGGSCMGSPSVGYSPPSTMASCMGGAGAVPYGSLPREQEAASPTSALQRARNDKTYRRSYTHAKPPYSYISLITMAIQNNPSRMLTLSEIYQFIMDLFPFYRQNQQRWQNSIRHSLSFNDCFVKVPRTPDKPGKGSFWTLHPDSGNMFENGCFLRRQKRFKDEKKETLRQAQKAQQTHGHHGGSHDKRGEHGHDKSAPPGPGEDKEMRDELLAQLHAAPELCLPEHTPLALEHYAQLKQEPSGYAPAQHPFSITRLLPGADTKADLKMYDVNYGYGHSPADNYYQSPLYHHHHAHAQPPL
Description: far-Western, overlay or dot blot; purified SGF1 (1 ug) separated by SDS-PAGE, transferred to PVDF, denatured and renatured; membrane probed with purified Bmsage-GST, detected by anti-GST antibody; both purified.

Assay [2] concerns the target T1, His-SGF1, full-length silk gland factor 1 (fork head transcription factor) (Bombyx mori). Description: ELISA; purified His-SGF1 (0.5 ug) fixed in a 96-well polystyrene plate overnight at 4 C; Bmsage-GST in PBS for 2 h at 37 C; detected with rabbit polyclonal anti-Bmsage antibody, absorbance at 450 nm; BSA as negative control; both purified.
Assay [3] concerns the target T2, HA-tagged SGF1 (Bombyx mori) (UniProt Q17241).
T2 sequence: T1 sequence
Kind of assay: co-IP; nuclear extracts of BmE cells over-expressing Flag-Bmsage and HA-SGF1; IP with anti-Bmsage or anti-SGF1 antibody on Dynabeads, 2 h at 4 C, 25 mM Tris pH 7.4, 150 mM NaCl, 1 mM EDTA, 1% Nonidet P-40, 5% glycerol; blot with HA or Bmsage antibody.

Assay [4] addresses T1, His-SGF1, full-length silk gland factor 1 (fork head transcription factor) (Bombyx mori). Kind of assay: native gel or EMSA; 1 ug purified recombinant proteins with Cy3-labelled A or B element DNA probe of the fib-H promoter, 25 C; 5% polyacrylamide gel in 1x TBE; further shift of the SGF1-DNA band with Bmsage; both purified. (In EMSA bound probe runs differently from free probe, usually more slowly.)

The target in assay [5] is Flag-tagged Bmsage (Bombyx mori). Description: co-IP; nuclear extracts of BmE cells over-expressing Flag-Bmsage and HA-SGF1; IP with anti-Bmsage or anti-SGF1 antibody on Dynabeads, 2 h at 4 C, 25 mM Tris pH 7.4, 150 mM NaCl, 1 mM EDTA, 1% Nonidet P-40, 5% glycerol; blot with HA or Bmsage antibody.

For “Bmsage-glutathione S-transferase (GST) fusion protein, full-length (Bombyx mori)”, the binding result in assay [1] and in assay [2] was “binds” in each case.

Take Flag-tagged Bmsage (Bombyx mori): in assay [3], the binding entry is recorded as “binds”.

With “recombinant Bmsage protein (as used in EMSA) (Bombyx mori)”, the binding result in assay [4] is listed as “binds”.

B1: HA-tagged SGF1 (protein, UniProt Q17241 1-349)
chain: T1 sequence
As to B1, the binding entry in assay [5] is “binds”.
